# The other results are listed elsewhere or left out. Repeats are few or missing, and single values can be far off.
# Biological target: T1, NSUN6 (UniProt Q8TEA1)
# T1 sequence: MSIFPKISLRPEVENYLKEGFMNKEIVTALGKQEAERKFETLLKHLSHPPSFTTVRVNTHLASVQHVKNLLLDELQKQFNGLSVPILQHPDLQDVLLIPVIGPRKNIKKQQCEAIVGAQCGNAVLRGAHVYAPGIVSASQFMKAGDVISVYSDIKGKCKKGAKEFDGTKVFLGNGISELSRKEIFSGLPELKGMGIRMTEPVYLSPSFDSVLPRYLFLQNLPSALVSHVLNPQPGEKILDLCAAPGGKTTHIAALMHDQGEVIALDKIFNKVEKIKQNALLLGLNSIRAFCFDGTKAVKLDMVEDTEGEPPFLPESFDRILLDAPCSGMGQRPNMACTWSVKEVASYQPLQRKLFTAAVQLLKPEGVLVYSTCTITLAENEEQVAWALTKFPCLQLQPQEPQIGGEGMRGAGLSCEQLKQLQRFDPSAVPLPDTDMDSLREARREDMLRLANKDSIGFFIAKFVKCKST
# Assay: m5C methylation level at the target C (C/(C+U) bisulfite reads) (fraction); higher = more methylation by NSUN6; extreme values may be limits of the assay
# Settings: HEK293T (wild-type)
# Protocol: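 High-throughput mutagenesis reporter. About 140 bp oligo-pool variants of four natural Type II m5C substrates (substrate #1 chr15:91425541; #2 RAB15 3'UTR chr14:65413377; #3 SULT2A1 5'UTR chr19:48389569; #4 NAAA CDS chr4:76857361) were cloned as 3'UTR elements of psiCHECK-2 luciferase and transfected into wild-type HEK293T cells. Total RNA was taken 48 h later and m5C level was measured by targeted bisulfite sequencing as C/(C+U) reads at the m5C site (one library).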
# [1] = parent substrate: substrate #1 (main figure)
Sequence,m5C methylation level at the target C [1],m5C methylation level at the target C (parent substrate: substrate #2),m5C methylation level at the target C (parent substrate: substrate #3),m5C methylation level at the target C (parent substrate: substrate #4)
CCGUUG,0,0,0.00125,0.00372
GCUCGU,0,0.00453,0.00178,0.00215
GCUUGC,0,0.00375,0.00217,0.00373
ACGGCA,0.00994,0.00302,0,0.00095
CCGCGA,0.000929,0.00105,0.000891,0.00834
GCAGUG,0.000747,0.00639,0.00332,0.00344
GCGUAC,0.00111,0,0.00046,0.00182
GCCCCG,0.0043,0,0.00231,0
CCGCUA,0.000672,0.00173,0.0021,0.00117
ACGAAG,0,0.000972,0,0.000986
GCCGCA,0.00165,0.0015,0.0115,0.0033
GCGGCC,0,0.000633,0.00091,0.00201
UCACAC,0,0,0.00157,0.000833
UCCCAC,0.00178,0,0,0
UCUAGC,0.000672,0,0,0.00232
GCGUAG,0.00238,0.00152,0.00343,0.00457
CCCCGC,0.000511,0.000925,0,0.00318
ACCGCC,0.0012,0.00724,0.00144,0.000682
GCUCUC,0.00295,0.0106,0.00382,0.0016
CCAACC,0.00111,0,0.00811,0
GCACUU,0.00183,0,0,0.000663
GCGAGG,0,0.0006,0.0022,0.00227
ACUCAC,0,0.00121,0,0
UCAGUU,0.000546,0.000726,0,0
GCAAUU,0.000488,0,0.00365,0

Sequence,m5C methylation level at the target C [1],m5C methylation level at the target C (parent substrate: substrate #2),m5C methylation level at the target C (parent substrate: substrate #3),m5C methylation level at the target C (parent substrate: substrate #4)
UCUUCG,0.0019,0,0.000417,0.00161
UCGGCC,0.00115,0.000672,0.00171,0.000341
GCAGUC,0.00148,0.00714,0.00137,0
CCUAGA,0,0.00118,0.001,0.00106
GCGCCC,0.00129,0.00431,0.00122,0.00145
ACACUU,0,0.00344,0.000538,0.0021
GCUCAG,0.00206,0.000971,0.000471,0.00575
GCACCA,0.000449,0.000812,0.000538,0.000726
UCAGUA,0.00332,0.0025,0,0
UCUAAU,0,0,0.00137,0.00319
ACCCGG,0.0108,0.000608,0.00286,0.000984
CCUGCA,0,0,0,0.0101
CCCCAG,0,0.0017,0,0.00852
CCGCAG,0.0029,0.00202,0.00129,0.00072
ACACCA,0,0.00135,0,0.00131
UCGUAA,0.000563,0,0.00315,0
ACCUAC,0.000527,0,0,0.00131
UCCUUC,0.00296,0,0,0.00725
CCUGGA,0,0,0.00481,0.00575
CCCCGU,0,0,0.00139,0.00106
ACUGCU,0,0.00478,0.00129,0.0025
ACGCCA,0,0.00131,0,0
CCACUG,0,0,0.000702,0.00582
ACCGCG,0.0013,0.000564,0.00237,0
ACAGGU,0,0,0,0

Sequence,m5C methylation level at the target C [1],m5C methylation level at the target C (parent substrate: substrate #2),m5C methylation level at the target C (parent substrate: substrate #3),m5C methylation level at the target C (parent substrate: substrate #4)
UCCGGG,0,0,0,0.000894
UCCGGC,0,0,0.00088,0.002
ACACUC,0.0024,0.00109,0,0.000728
GCUAUC,0.00189,0.000602,0.00112,0.00193
CCUAGG,0,0,0,0.00173
GCUAUU,0.00216,0.00471,0.000548,0.00645
GCAGAC,0,0.00796,0,0.000834
GCGGAG,0.00224,0.00298,0.00119,0
ACUUUG,0.00117,0.00166,0.00538,0
CCUUCG,0.00154,0.000846,0.00183,0.000998
GCUGCG,0.00245,0.00727,0.00218,0.00102
CCCUCA,0.00111,0,0.00122,0.0108
GCGUGA,0.0029,0.000607,0.00396,0.000851
CCAUAG,0,0,0.00527,0.000654
UCCUUA,0.00167,0,0.000657,0.027
UCCUAC,0.00119,0,0,0.00219
GCGCGG,0,0.000743,0.00146,0
ACGUAG,0.00403,0.0042,0.00102,0
UCUUGU,0,0,0.000486,0.00221
CCGAUU,0.000609,0.0141,0.000831,0
ACAGCG,0,0.000903,0.00597,0
CCAAGU,0.00109,0,0.00089,0
ACCCCC,0.00289,0,0,0
GCGUCC,0,0.00178,0.000993,0
GCACUC,0.00197,0,0,0

Sequence,m5C methylation level at the target C [1],m5C methylation level at the target C (parent substrate: substrate #2),m5C methylation level at the target C (parent substrate: substrate #3),m5C methylation level at the target C (parent substrate: substrate #4)
ACGUUU,0,0.00246,0.00554,0.00633
ACAGCC,0.000663,0.00141,0,0.00741
ACGCCU,0.00124,0.00278,0,0
UCUGAG,0.000428,0.00196,0,0.00204
UCGAUA,0,0.000598,0.00442,0.0061
ACUGGG,0,0.00109,0,0
ACGCAG,0.000651,0,0,0.00077
ACAUGG,0.00256,0,0.00424,0
CCGCUC,0,0,0,0
ACUUCC,0.000889,0,0.00137,0.000977
GCUGAG,0.000634,0.00972,0.000841,0.00685
UCAUUA,0,0,0.000554,0
GCGAGC,0,0.000827,0.00116,0.0027
ACGGGA,0.0032,0.00119,0.000902,0
UCUACA,0.000792,0,0.00337,0
GCGCAG,0.00245,0.00732,0.00192,0.00115
UCUGUG,0.00332,0.00185,0.000888,0.00111
CCUCUG,0.00164,0,0.000655,0
GCACUA,0.000804,0.00149,0.0015,0
GCUUUU,0.00338,0.00284,0.00207,0
GCGUUC,0.00325,0.00158,0.00312,0.00197
ACCAAA,0,0.000845,0.00448,0
CCUAGC,0.000834,0,0.0041,0.000789
GCUAGU,0.00152,0.00677,0.00581,0.00072
ACCGGC,0.00101,0.000824,0.00105,0

Sequence,m5C methylation level at the target C [1],m5C methylation level at the target C (parent substrate: substrate #2),m5C methylation level at the target C (parent substrate: substrate #3),m5C methylation level at the target C (parent substrate: substrate #4)
CCUUAA,0.00102,0.00127,0,0
ACGACC,0.00871,0,0.00546,0
UCCGCG,0.00474,0.000994,0.00127,0.00764
UCUACC,0.00127,0.00355,0,0.000533
GCAUCC,0.00155,0.00885,0.000699,0.00749
CCGACC,0.000463,0,0.00114,0
GCCUGU,0.00108,0.000864,0.00572,0.00154
GCAUAA,0.00113,0,0.00058,0.00447
GCAGGU,0,0.00184,0.000755,0.0242
CCGUUA,0.00214,0.00362,0.000316,0.00167
GCAUAU,0,0,0.000417,0.00306
ACGCAA,0.00831,0.00461,0.000536,0.00106
ACUAAC,0,0,0,0.000811
GCACUG,0.00092,0,0.00124,0
CCGGAC,0.00114,0.001,0,0
GCGCAC,0.00116,0.00293,0.00125,0
UCCUCA,0.00136,0.00216,0,0.00175
UCAGCG,0.00063,0,0.00348,0.000819
CCCAUU,0,0.00209,0.000813,0
GCUCCG,0.00142,0.00698,0.000396,0
UCACGA,0.00696,0,0.00249,0.00146
GCACGG,0.00222,0.000918,0,0
CCAGGA,0.00139,0.00235,0.00196,0.00441
UCGCCG,0,0,0.000487,0
CCAACU,0.00468,0,0.0024,0

Sequence,m5C methylation level at the target C [1],m5C methylation level at the target C (parent substrate: substrate #2),m5C methylation level at the target C (parent substrate: substrate #3),m5C methylation level at the target C (parent substrate: substrate #4)
CCAGGC,0.000681,0.00081,0.00042,0
GCGACU,0.00093,0.00205,0.0067,0.000974
ACUAAA,0,0.00192,0,0
ACGGUG,0.0129,0,0.00202,0.00111
CCAACA,0.00681,0.00369,0,0.00121
ACUCGG,0.00544,0,0.00275,0
ACAUAU,0.00128,0,0.000635,0
UCGGUC,0.000495,0.00103,0.00897,0.00228
GCAAAA,0,0.00411,0.00127,0.00436
ACGAUC,0.00744,0,0.00204,0.000754
GCCAGA,0.000627,0.00131,0.0011,0.000692
CCUACU,0.00113,0,0.000962,0.00084
CCUUGC,0,0.00148,0.00246,0
UCUAUG,0,0.00395,0.00058,0
UCCUCC,0,0.00188,0,0
GCGCAU,0.000907,0,0.000509,0
CCCGUA,0.00487,0.0014,0,0
GCAACA,0,0,0.00132,0
CCCGUC,0.00169,0.0023,0.00109,0
GCGCGC,0.0126,0.00107,0.00146,0.000688

# Part of the list above, limited to m5C methylation level at the target C (parent substrate: substrate #3) and m5C methylation level at the target C (parent substrate: substrate #4):
Sequence | m5C methylation level at the target C (parent substrate: substrate #3) | m5C methylation level at the target C (parent substrate: substrate #4)
ACGGUG | 0.00202 | 0.00111
ACAUAU | 0.000635 | 0
GCCAGA | 0.0011 | 0.000692
CCUUGC | 0.00246 | 0
GCAACA | 0.00132 | 0

# From the supplement of paper PMC8288183
